Laboratory results published in PubChem BioAssay AID504834 (National Center for Advancing Translational Sciences (NCATS), 2011).
The campaign covered roughly 320,000 compounds. About 22,000 (6.9%) were called active. Inconclusive means that the source gave no clear call. Such entries were picked first, then a sample of the others. Calls come from the whole dose curve; as a rule, active = well fitted inhibition curve with a large enough effect; inconclusive = small, poorly fitted or top-dose-only effect, or another doubt; inactive = no such curve, though single readings can be large or run the other way. A potency beside an inconclusive call is a rough fit, not a confirmed value.

Test: Primary qHTS for delayed death inhibitors of the malarial parasite plastid, 96 hour incubation
Settings: P. falciparum luciferase reporter growth; series mostly up to 28.7 µM
Summary of the method: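 Plates of compound plus infected erythrocytes (2% hematocrit, 0.05% parasitemia final) incubate 96 hours, 37 C, 5% CO2. Detection reagent added; reduced luminescence from the parasites' luciferase reporter flags inhibition.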
Potency is the fitted concentration of half-maximal effect.

SMILES	Potency
Cc1ccc(S(=O)(=O)N2CCN(C(=O)Cn3nc(C)c([N+](=O)[O-])c3C)CC2)c(C)c1	inconclusive: 0.0029 µM [inhibitor, full curve, poor fit]
CCOc1ccc(NC(=O)CCNc2c(N3CCCC3)c(=O)c2=O)cc1	inactive
COc1cc([N+](=O)[O-])ccc1NC(=O)C1C2C=CC(C2)C1C(=O)O (stereo not drawn)	active: 11.7 µM
COc1ccc(/C=N/NC(=O)c2ccoc2C)cc1COc1c(C)cccc1C	active: 10.4 µM
O=C1CSC(c2ccc(Cl)cc2)N1C1CCCCC1 (stereo not drawn)	inconclusive: 9.28 µM [inhibitor, partial curve]
Brc1cccc(CNc2nc3ccccc3n2CCN2CCOCC2)c1	inactive
COc1ccc(Nc2nc(N)nc(CSc3nnc(C)s3)n2)cc1	inconclusive: 10.4 µM [inhibitor, single point]
COc1ccc(/C=C2\SC(=Nc3ccccc3)NC2=O)cc1	inconclusive: 11.7 µM [inhibitor, single point]
CCc1nc(Sc2nc(C)cc(C)n2)c2oc3ccccc3c2n1	inconclusive: 9.28 µM [inhibitor, partial curve, poor fit]
CNc1nc(Nc2ccc(C)c(Cl)c2)c2cnn(C)c2n1	inactive
Cc1ccc(NC(=O)N2CCc3ccccc3C2)cc1C	inconclusive: 10.4 µM [inhibitor, single point]
Cc1cc(Cl)ccc1OCC(=O)Nc1ccc(CN2CCOCC2)cc1	inconclusive: 9.28 µM [inhibitor, single point]
NC(=O)c1ccc(NC(=O)c2cccc(Oc3ccccc3)c2)cc1	inactive
Cc1ccccc1C(=O)OC1OC(=O)C(Cl)=C1N1CCOCC1 (stereo not drawn)	inconclusive: 5.22 µM [inhibitor, partial curve, poor fit]
CCN(CCNC(=O)c1cc(C)nn1-c1ccccc1)c1ccccc1	inconclusive: 16.5 µM [inhibitor, single point]
Cc1ccc(C)n1-c1ccc(C(=O)NN)s1	inconclusive: 18.5 µM [inhibitor, single point]
CCOC(=O)c1sc(NC(=O)CN2CCCC2)c(C(=O)OCC)c1C	inactive
CCc1ccc(Sc2cc(C(=O)NCCN3CCOCC3)c3ccccc3n2)cc1	inconclusive: 18.5 µM [inhibitor, single point]
CCCN1CCC(=O)N([C@H](CSc2ccc(C)cc2)c2ccccc2)CC1	inconclusive: 18.5 µM [inhibitor, single point]
CCn1cc(C(=O)O)c(=O)c2cnc(N3CCN(C(=S)NC(=O)c4ccc(Cl)cc4Cl)CC3)nc21	inconclusive: 0.828 µM [inhibitor, full curve, poor fit]
Cc1ccc(N=C2NC(=O)c3cccc([N+](=O)[O-])c32)cc1	inconclusive: 5.22 µM [inhibitor, partial curve, poor fit]
Cc1ccc(CSCCNC(=O)CN2C(=O)c3ccccc3S2(=O)=O)cc1	inconclusive: 13.1 µM [inhibitor, partial curve]

Arranged by number of heavy atoms (largest number first): part of the list above.
SMILES	Potency
CCn1cc(C(=O)O)c(=O)c2cnc(N3CCN(C(=S)NC(=O)c4ccc(Cl)cc4Cl)CC3)nc21	inconclusive: 0.828 µM [inhibitor, full curve, poor fit]
Cc1ccc(S(=O)(=O)N2CCN(C(=O)Cn3nc(C)c([N+](=O)[O-])c3C)CC2)c(C)c1	inconclusive: 0.0029 µM [inhibitor, full curve, poor fit]
CCCN1CCC(=O)N([C@H](CSc2ccc(C)cc2)c2ccccc2)CC1	inconclusive: 18.5 µM [inhibitor, single point]
Brc1cccc(CNc2nc3ccccc3n2CCN2CCOCC2)c1	inactive
CCOC(=O)c1sc(NC(=O)CN2CCCC2)c(C(=O)OCC)c1C	inactive
COc1ccc(Nc2nc(N)nc(CSc3nnc(C)s3)n2)cc1	inconclusive: 10.4 µM [inhibitor, single point]
Cc1ccccc1C(=O)OC1OC(=O)C(Cl)=C1N1CCOCC1 (stereo not drawn)	inconclusive: 5.22 µM [inhibitor, partial curve, poor fit]
COc1ccc(/C=C2\SC(=Nc3ccccc3)NC2=O)cc1	inconclusive: 11.7 µM [inhibitor, single point]
O=C1CSC(c2ccc(Cl)cc2)N1C1CCCCC1 (stereo not drawn)	inconclusive: 9.28 µM [inhibitor, partial curve]

Next records follow.

SMILES	Potency
O=C(O)C/C(=C\c1cc(Br)cs1)c1nc2ccccc2o1	inactive
CCN1C(=O)[C@H]2[C@@H](c3ccc(-c4ccc(Cl)c(Cl)c4)cc3)N[C@@](CC(C)C)(C(=O)OC)[C@H]2C1=O	active: 4.65 µM
COc1ccc2c3n([n+]([O-])c2c1)CCN=C3c1cc(Cl)c(N)c(Cl)c1	inconclusive: 18.5 µM [inhibitor, single point]
CCn1c2c(c(=N)c3ccccc31)CCC2	inconclusive: 0.0828 µM [inhibitor, full curve, poor fit]
Cc1cnc(NC(=O)CCCNC(=O)c2ccc(Cl)cc2)s1	inactive
COc1cc(-c2cn[nH]c2N)cc(OC)c1OC	inconclusive: 0.0083 µM [inhibitor, full curve, poor fit]
COC(=O)CCC(=O)OC1(C)C(=O)C2=CN(CC3CC3)C(c3ccc(OC)cc3)=CC2=C(Br)C1=O (stereo not drawn)	inconclusive: 11.7 µM [inhibitor, single point]
O=C(NNC(=O)c1cccs1)c1ccco1	inconclusive: 18.5 µM [inhibitor, single point]
O=C(CCc1nnc(CCCCc2ccccc2)o1)NCc1cccc(F)c1	inconclusive: 11.7 µM [inhibitor, single point]
Cn1nnnc1SCC1=C(C(=O)O)N2C(=O)[C@@H](NC(=O)[C@H](O)c3ccccc3)[C@H]2SC1	inactive
CCCCN(C(=O)CSc1cc(C)c2ccccc2n1)c1c(N)n(Cc2ccccc2)c(=O)[nH]c1=O	inconclusive: 13.1 µM [inhibitor, partial curve, poor fit]
C[C@]12CC[C@H](O)C[C@H]1CCC1C2CC[C@]2(C)[C@@H](c3ccc(=O)oc3)C[C@H]3O[C@]132 (stereo partly drawn)	inconclusive: 13.5 µM [inhibitor, single point]
O=c1cc(CN2CCN(c3ccccc3)CC2)c2c(ccc3ccccc32)o1	active: 10.4 µM
Cc1cc(C)c2c(CN3CCN(Cc4ccccc4)CC3)cc(=O)oc2c1C	inconclusive: 14.7 µM [inhibitor, partial curve, poor fit]
CCOc1ccc(S(=O)(=O)Nc2ccc(C(=O)NCCCN3CCOCC3)cc2)cc1	inactive
COc1ccc(CN2CCN(CCCc3ccccc3)C(CCO)C2)c(OC)c1 (stereo not drawn)	inconclusive: 14.7 µM [inhibitor, partial curve, poor fit]
Cc1nn(C)c(C)c1CCC(=O)N1CCCC(Nc2ccc(C(C)C)cc2)C1 (stereo not drawn)	inactive
COc1ccc(NC(=O)CSc2nc(O)cc(=O)n2-c2ccccc2OC)cc1	inconclusive: 13.1 µM [inhibitor, partial curve, poor fit]
Oc1ccc(/C=N/Nc2nc(-c3cccnc3)nc3ccccc23)c(O)c1	inconclusive: 0.0165 µM [inhibitor, full curve, poor fit]
COc1ccc(OC)c(-n2c(SCC(N)=O)nnc2-c2c[nH]c3ccccc23)c1	active: 5.22 µM
O=C(O)CCCNC(=O)c1cccc(C(=O)NCCCC(=O)O)n1	inconclusive: 10.4 µM [inhibitor, single point]
